Experimental data from PubChem BioAssay AID2517 (National Center for Advancing Translational Sciences (NCATS), 2010).
Several values for one entry are separate records, joined by “and”; a condition that tells them apart may be missing. Identical values can stand only once. The campaign covered roughly 350,000 compounds. About 1,200 (0.34%) were called active. Inconclusive means that the source gave no clear call. Such entries were picked first, then a sample of the others. The call rests on the fitted dose curve; in most records, active means well fitted inhibition curve with a large enough effect; inconclusive means small, poorly fitted or top-dose-only effect; inactive means no such curve, though single readings can be large or run the other way. Potencies of inconclusive entries are doubtful fits and often do not repeat.

Amino acid sequences for entries named in this document (tags omitted).
UniProt P27695, whole entry, looked up: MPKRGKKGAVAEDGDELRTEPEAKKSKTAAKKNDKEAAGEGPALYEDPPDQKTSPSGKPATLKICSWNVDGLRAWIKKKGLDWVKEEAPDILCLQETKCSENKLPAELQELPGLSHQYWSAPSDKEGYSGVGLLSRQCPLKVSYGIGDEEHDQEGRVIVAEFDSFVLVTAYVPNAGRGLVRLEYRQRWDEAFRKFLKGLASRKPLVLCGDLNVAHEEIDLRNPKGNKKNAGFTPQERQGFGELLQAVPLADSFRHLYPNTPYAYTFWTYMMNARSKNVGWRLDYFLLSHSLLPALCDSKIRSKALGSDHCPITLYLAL

Target: DNA repair nuclease/redox regulator APEX1 (Homo sapiens) (UniProt P27695)
Assay: qHTS Assay for Inhibitors of the Human Apurinic/apyrimidinic Endonuclease 1 (APE1); further: nearly all actives have a fitted effect of over 55% in size;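 on activity change, negative = inhibition: plate controls were vehicle for no effect and reference inhibitor for full effect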
Conditions: recombinant APE1, TAMRA/BHQ-2 abasic DNA cleavage fluorescence; activity change, negative = inhibition: at 65.8 µM (top of the series)
From the text: The apurinic/apyrimidinic endonuclease APE1 is the primary mammalian enzyme responsible for the removal of abasic (or AP) sites in DNA and functions centrally in the base excision DNA repair (BER) pathway. […] Thus, targeting APE1 could improve the efficacy of current treatment paradigms by promoting selective sensitization or protection of diseased and normal cells, respectively.
Inhibition of APE1 activity was screened by utilizing double-stranded short substrate containing tetrahydrofuran (THF) abasic site labeled with rhodamine-type fluorophore (TAMRA) at the 5'-end and with non-fluorescent Black Hole Quencher-2 (BHQ-2) at the opposing 3'-end. An increase in the fluorescence intensity due to incision of the abasic site by APE1 was used to measure the enzyme activity.
NIH Chemical Genomics Center [NCGC]
NIH Molecular Libraries Probe Centers Network [MLPCN]
Assay Provider: David M. Wilson, III, National Institute on Aging, NIH
Three uL of enzyme solution (0.75 nM APE1 final concentration) was dispensed to 1536-well Greiner black solid bottom plates. […] The plates were incubated for 15 min at room temperature, and then 1 uL of substrate solution (50 nM final concentration of TAMRA/BHQ-2) was added to start the reaction. The plates were immediately transferred into ViewLux High-throughput CCD imager (Perkin-Elmer) in order to measure the reaction progress in kinetic mode (three reads every 60 seconds) using 525 nm excitation and 598 nm emission fluorescence protocol. The fluorescence intensity difference between the third and the first time points was used to compute reaction progress. Results were normalized to buffer only columns and NSC13755 positive controls and negative control DMSO treated wells.
Potency means the concentration at half of the fitted maximal effect.

SMILES	Potency	activity change, negative = inhibition
CCOc1cc(C2C(C(=O)N3CCCCC3)=C(C)NC3=C2C(=O)CC(C)(C)C3)ccc1O (stereo not drawn)	inconclusive: 56.2 µM [inhibitor, single point]	
CCCC[C@@H]1CN2[C@H](c3ccc(Br)cc3)[C@H](C)CC[C@H]2C(=O)O1		inactive: 10.8% [at 12.4 µM]
O=C(CSC1CC(=O)N(CC(c2ccccc2)c2ccccc2)C1=O)Nc1ccc(Cl)cc1 (stereo not drawn)	inconclusive: 0.0003 µM [inhibitor]	
Cc1cc(C(=O)N/N=C/c2ccc3c(c2)OCO3)c(C)n1-c1ccc(F)cc1	inconclusive: 11.2 µM [inhibitor, partial curve, poor fit]	
CCOC(=O)/C=C/C(=O)N1CCc2ccccc21	inactive	
COc1cc(/C=C/c2cc(C(=O)O)c3ccccc3n2)cc(OC)c1O	inconclusive: 5.01 µM [inhibitor, full curve]	
COc1cccc(C=NC=Nc2cccc(OC)c2)c1	inconclusive: 39.8 µM [inhibitor, single point]	
C[N+](C)(CCCCCC[N+](C)(C)CCCN1C(=O)c2cccc3cccc(c23)C1=O)CCCN1C(=O)c2cccc3cccc(c23)C1=O	active: 10 µM and active: 4.74 µM	
Cc1ccnc(NC(=O)c2cc3c(=O)oc4ccc(C)cc4c3s2)c1	inconclusive: 0.0251 µM [inhibitor, full curve, poor fit]	
Cc1ccccc1OCCCCc1c(C)n[nH]c1C	inactive	
CCN(CCNC(=O)C1CCN(S(=O)(=O)c2c(C)noc2C)CC1)c1ccccc1	inconclusive: 31.6 µM [inhibitor, single point]	
CC(=O)NC(=O)COC(=O)c1ccc2ncsc2c1	inconclusive: 31.6 µM [inhibitor, single point]	
O=C(C[C@@H]1C/C=C\C[C@H](NC(=O)OCC2c3ccccc3-c3ccccc32)C(=O)OC[C@H]2CCCN2C1=O)NCCO	active: 10.6 µM	
Cc1ccsc1C(=O)Nc1ccc2c(c1)OCCO2	inconclusive: 56.2 µM [inhibitor, partial curve, poor fit]	
CCOc1ccc(NC(=O)CN(C)C(=O)C2COc3ccccc3O2)cc1OCC (stereo not drawn)	inconclusive: 21.2 µM [inhibitor, partial curve]	
O=C(/C=C\c1ccco1)NC(=S)Nc1ccccc1O	inactive	
CCOc1ccccc1NC(=O)c1cc(-c2ccncc2)nc2c(Cl)cccc12	inactive	
O=C(O)c1ccc(-c2ccco2)n1Cc1ccccc1	inconclusive: 44.7 µM [inhibitor, single point]	
CC(C)c1nc(SCC(=O)Nc2cccc3ccccc23)n[nH]1	inactive	
NS(=O)(=O)c1ccc(N=Nc2c(=O)[nH]n3c(=O)c4c([nH]c23)CCCC4)cc1	inactive	
O=C(CN1CCN(S(=O)(=O)c2ccc3ccccc3c2)CC1)N1CCc2ccccc2C1	inconclusive: 35.5 µM [inhibitor, single point]	
CCOC(=O)C1CCN(S(=O)(=O)c2ccc3[nH]c(=O)oc3c2)CC1	inconclusive: 11.2 µM [inhibitor, partial curve]	
COC(=O)NC(CCc1ccccc1)C(C(=O)OC)C(=O)OC (stereo not drawn)	inconclusive: 5.62 µM [inhibitor, single point]	

SMILES	Potency	activity change, negative = inhibition
CCOC(=O)c1sc(NC(=O)C2CC=CCC2C(=O)O)nc1C (stereo not drawn)	inconclusive: 20 µM [inhibitor, partial curve]	
Fc1ccc(-c2nnc3n2CCCCC3)cc1	inconclusive: 14.1 µM [inhibitor, partial curve, poor fit]	
[O-]/C(=C(\C(=S)Nc1cccc2ccccc12)[n+]1ccccc1)c1ccc2c(c1)OCCO2	inconclusive: 3.55 µM [inhibitor, full curve, poor fit]	
OCC#CCSc1nnc(-c2ccccc2Br)o1	inconclusive: 0.631 µM [inhibitor, full curve, poor fit]	
O=C(O)CSc1ncnc2sc3c(c12)CCC3	inconclusive: 39.8 µM [inhibitor, single point]	
CCOC(CNc1ncnc2sc(-c3ccccc3)cc12)OCC	inactive	
COc1ccc(-n2nc(C(=O)NCC(=O)Nc3cccc(NC(C)=O)c3)c3ccccc3c2=O)cc1	inconclusive: 44.7 µM [inhibitor, single point]	
CN=c1scc(-c2ccc(F)cc2)n1/N=C/c1ccc(O)c(O)c1	inconclusive: 28.2 µM [inhibitor, partial curve]	
O=C(c1cnn2c1NC(=C1CC1)C=C2C(F)F)N(C1CCCCC1)C1CCCCC1	inactive	
c1ccc(COC2CCCN(Cc3nc(Cc4ccccc4)no3)C2)cc1 (stereo not drawn)	inconclusive: 31.6 µM [inhibitor, single point]	
COc1cccc(F)c1C(=O)NC(=O)Nc1ccc2nc(C)oc2c1	inconclusive: 35.5 µM [inhibitor, single point]	
CC(C)OC(=O)CN1CCN(C2c3ccccc3-c3ccccc32)CC1	inconclusive: 8.91 µM [inhibitor, single point]	
COc1cccc(CNC(=O)CN2c3cccc4cccc(c34)S2(=O)=O)c1	inconclusive: 21.2 µM [inhibitor, single point]	
O=C(N/N=C/c1ccc(O)c(O)c1)c1ccc(-n2cnnn2)cc1	inconclusive: 18.9 µM [inhibitor, single point]	
Cc1ccc(NC(=O)c2c3c(nc4ccccc24)CCC3)cc1S(=O)(=O)N(C)C	inconclusive: 25.1 µM [inhibitor, partial curve]	
O=C(COC(=O)Cc1ccc(S(=O)(=O)N2CCOCC2)s1)NCCc1ccccc1	inconclusive: 31.6 µM [inhibitor, partial curve, poor fit]	
Cc1cc(C)c2c(c1)C1C=CCC1C(c1ccc(S(=O)(=O)N3CCOCC3)cc1)N2 (stereo not drawn)	inactive	
CCN(CC)c1ccc(C2C(C(=O)OC)=C(C)NC(C)=C2C(=O)OC)cc1	inactive	
Cn1cnc2c1c(=O)n(CC(O)CO)c(=O)n2C (stereo not drawn)	inconclusive: 89.1 µM [inhibitor, partial curve, poor fit]	
CCN(CC)CC(=O)Nc1c(C#N)cnn1-c1ccccc1	inconclusive: 3.98 µM [inhibitor, partial curve]	
CCOC(=O)/C(=C\c1ccccc1)NC(=O)c1ccccc1	inactive	
COc1cccc(/C=N/NC(=S)Nc2cccc(C(=O)O)c2)c1O	inactive	
O=C(Cn1c(=O)n(Cc2ccco2)c(=O)c2c3c(sc21)CCCCC3)c1ccccc1	inconclusive: 28.2 µM [inhibitor, partial curve]	

SMILES	Potency	activity change, negative = inhibition
O=C1Nc2ccccc2/C1=N/N=C/c1ccc(-c2ccc([N+](=O)[O-])cc2)o1	inconclusive: 50.1 µM [inhibitor, partial curve, poor fit]	
O=C(Nc1ccccc1)n1ccc(-c2ccc(-n3ccnc3)cc2)n1	inconclusive: 0.562 µM [inhibitor, full curve, poor fit]	
COc1ccc2c(c1OC)C(=O)OC2	inactive	
O=[N+]([O-])c1ccc(Nc2cccc(F)c2)nc1	inconclusive: 39.8 µM [inhibitor, single point]	
Cc1ccc2c(CC(=O)OCc3cc(=O)n4c(n3)sc3ccccc34)coc2c1	inconclusive: 25.1 µM [inhibitor, single point]	
CN=C(Nc1ccc(C(=O)OC)s1)c1ccc(Cl)cc1	inconclusive: 10 µM [inhibitor, single point]	
O=Cc1ccc(Oc2nc(Cl)ncc2F)cc1	inconclusive: 21.2 µM [inhibitor, single point]	
S=C(NCc1ccco1)Nc1ccc(Cl)c(Cl)c1	inconclusive: 44.7 µM [inhibitor, single point]	
O=C(CCCN1C(=O)/C(=C/c2cccs2)SC1=S)Nc1cc([N+](=O)[O-])ccc1O	inactive	
C/C(=N\NC(=O)CSc1nc2ccccc2s1)c1cccnc1	inconclusive: 35.5 µM [inhibitor, single point]	
O=C(c1c(O)cc(O)cc1O)C1c2c(cc(O)c3c2O[C@H](c2ccc(O)cc2)[C@@H](O)C3)OC1c1ccc(O)cc1 (stereo partly drawn)	inactive	
Cc1ccc(NC(=O)CC2C(=O)OCC3CCCCN32)cc1Cl (stereo not drawn)	inconclusive: 3.55 µM [inhibitor, single point]	
CCCCN(CCCC)CC(O)COc1ccccc1Br (stereo not drawn)	inconclusive: 0.224 µM [inhibitor, full curve, poor fit]	
C/C(N)=C(/C#N)C(=O)CSc1nnc(Nc2cccc(C)c2)s1	inconclusive: 39.8 µM [inhibitor, single point]	
O=C(CCCN1C(=O)/C(=C\c2cccs2)SC1=S)Nc1cccc(C(=O)O)c1	inactive	
O=C(Cc1c(O)c2ccccc2oc1=O)c1ccc(C(F)(F)F)cc1	inactive	
O=[N+]([O-])c1ccc(N2CCN(C(=S)NCc3ccc(Cl)cc3)CC2)cc1	inconclusive: 5.62 µM [inhibitor, full curve, poor fit]	
O=c1cc(-c2ccccc2Cl)oc2cc(O)cc(O)c12	inconclusive: 7.94 µM [inhibitor, single point]	
O=c1[nH]c(=O)c2nnc(N/N=C/c3ccccc3F)nc2[nH]1	inactive	
N#CC1=C(SCc2ccccc2)NC(=O)CC1c1ccccc1 (stereo not drawn)	inconclusive: 10 µM [inhibitor, partial curve]	
O=C1c2cc(Br)ccc2N(Cc2ccc(Br)cc2)S(=O)(=O)C1c1cc(Cl)c(Cl)cc1[N+](=O)[O-] (stereo not drawn)	inactive	
CCN1C(=O)/C(=C\c2ccc(-c3ccc([N+](=O)[O-])cc3OC)o2)SC1=Nc1cccc(C(=O)O)c1	inconclusive: 31.6 µM [inhibitor, partial curve]	
